{"source": "PubChem BioAssay AID1259425 (University of Nebraska Medical Center, 2018)", "test": "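Compare each knockdown with KSR1 silencing using changes in marker transcripts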 (primary screen)", "cells": "HCT116 human colon cancer cells", "knock-down reagent": "siRNA pool against human genes, 50 nM siRNA", "measured": "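mRNA of six signature genes measured together by branched-DNA assay after 50 nM siRNA pool, blank removed, divided by geometric mean of two housekeeping genes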", "scale": "BNIP3L mRNA: higher = more BNIP3L transcript after knockdown", "note": "Here is a random part of about 14,000 deposited reagents. Not all columns of the deposit are shown. Reagent sequences are not shown. Not stated in the record: the time to read-out."}
{"target":"PIDD1","BNIP3L mRNA, set 1":0.363}
{"target":"CLDN1","BNIP3L mRNA, set 1":0.0785}
{"target":"HSF2BP","BNIP3L mRNA, set 1":0.221}
{"target":"MAK16","BNIP3L mRNA, set 1":0.175}
{"target":"EIF2B1","BNIP3L mRNA, set 1":0.22}

Continued; the last 2 above are carried over.
{"target":"MAK16","BNIP3L mRNA, set 1":0.175}
{"target":"EIF2B1","BNIP3L mRNA, set 1":0.22}
{"target":"CAPN5","BNIP3L mRNA, set 1":0.0673}
{"target":"MBD3L1","BNIP3L mRNA, set 1":0.135}
{"target":"TBX1","BNIP3L mRNA, set 1":0.176}
{"target":"PLCL1","BNIP3L mRNA, set 1":0.14}
{"target":"SPSB1","BNIP3L mRNA, set 1":0.178}
{"target":"TM9SF1","BNIP3L mRNA, set 1":0.132}
{"target":"TBC1D1","BNIP3L mRNA, set 1":0.127}
